Assay results published in patent publication US20230218721A1, “INCRETIN ANALOGUE, PREPARATION METHOD THEREFOR, AND USE THEREOF” (ZHEJIANG DOER BIOLOGICS CO., LTD., priority 2020, published 2023).
For at least one compound, name, drawing or mass did not settle the structure. Starred links: 1 amine or outer side, 2 acyl side, 3 side chain; linkers in the order of their positions; H or OH if unused. Residues, ends and D or L forms follow the SMILES beside them. Groups on a side chain read outwards from the residue. *: point of attachment. C20 diacid = O=C(O)CCCCCCCCCCCCCCCCCCC(=O)*; C18 diacid = O=C(O)CCCCCCCCCCCCCCCCC(=O)*; γGlu = O=C(O)[C@H](CCC(=O)[*:2])N[*:1]; Palmitoyl = CCCCCCCCCCCCCCCC(=O)*; AEEA = NCCOCCOCC(=O)O

Protein sequences, listed by entry. Tags and fused reporters are not part of them. Residues count along the entry.
UniProt P43220, 24-463: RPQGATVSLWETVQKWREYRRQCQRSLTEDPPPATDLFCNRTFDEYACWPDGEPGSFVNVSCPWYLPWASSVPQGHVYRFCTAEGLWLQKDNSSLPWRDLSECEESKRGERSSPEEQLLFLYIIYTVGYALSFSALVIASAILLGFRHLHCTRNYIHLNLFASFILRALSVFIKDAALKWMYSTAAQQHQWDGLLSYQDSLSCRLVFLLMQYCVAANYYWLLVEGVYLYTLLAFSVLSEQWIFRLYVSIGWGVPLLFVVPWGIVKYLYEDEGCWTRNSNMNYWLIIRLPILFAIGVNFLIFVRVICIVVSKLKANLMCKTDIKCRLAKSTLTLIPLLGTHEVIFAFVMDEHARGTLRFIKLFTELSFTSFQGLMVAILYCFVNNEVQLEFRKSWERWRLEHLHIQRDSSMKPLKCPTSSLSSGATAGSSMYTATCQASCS
UniProt P47871, 26-477: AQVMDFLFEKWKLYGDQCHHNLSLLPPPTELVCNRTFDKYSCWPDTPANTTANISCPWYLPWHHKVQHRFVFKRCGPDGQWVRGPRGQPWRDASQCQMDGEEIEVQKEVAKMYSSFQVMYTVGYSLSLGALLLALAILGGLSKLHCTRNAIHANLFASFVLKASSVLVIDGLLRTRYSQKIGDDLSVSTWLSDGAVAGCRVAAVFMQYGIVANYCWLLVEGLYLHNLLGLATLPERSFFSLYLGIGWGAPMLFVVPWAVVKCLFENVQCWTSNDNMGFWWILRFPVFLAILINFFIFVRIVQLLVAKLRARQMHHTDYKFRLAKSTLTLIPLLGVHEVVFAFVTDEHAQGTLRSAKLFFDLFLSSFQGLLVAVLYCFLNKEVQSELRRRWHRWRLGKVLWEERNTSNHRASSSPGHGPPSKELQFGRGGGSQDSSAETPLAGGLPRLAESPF

Tests used:
GLP-1R = biological target: T1, GLP-1R (Homo sapiens, UniProt P43220); test: GLP-1R agonist activity assay, luciferase reporter gene in stably transfected CHO-K1 cells; assay type: cell-based; details: for cellular agonist activity (in words): GLP-1R, GIPR and GCGR taken together, compared with P3YELAN
T1 construct: expressed in transfected cells
Description: GLP-1R agonist activity was detected using luciferase reporter gene assay (Jonathan W Day et, al.: Nat Chem Biol. 2009 October; 5 (10): 749-57). Humanized GLP-1R gene was cloned into mammalian cell expression plasmid pCDNA3.1 to construct recombinant expression plasmid pCDNA3.1-GLP-1R, and at the same time, luciferase full-length gene was cloned into pCRE plasmid to get pCRE-Luc recombinant plasmid. The pcDNA3.1-GLP-1R and pCRE-Luc plasmids were transfected into CHO-K1 cells at a molar ratio of 1:10, and the stably transfected cell strains were screened. Cells were cultured in a 9-cm cell culture dish with DMEM/F12 medium containing 10% FBS and 300 μg/ml G418. When the confluence reached about 90%, the culture supernatant was discarded. The cells were digested in 2 ml trypsin for 3 min and neutralized in 2 ml DMEM/F12 medium containing 10% FBS and 300 μg/ml G418 was added for neutralization, then the mixture was transferred into a 15 ml centrifuge tube. After centrifugation at 1000 rpm for 5 min, the supernatant was discarded. 2 ml DMEM/F12 medium containing 10% FBS and 300 μg/ml G418 was added for resuspension, and the number of cells was counted. Cells were diluted with DMEM/F12 medium containing 10% FBS to 1×10^5/ml, and plated in 96-well plates at 100 μl/well, i.e., 1×10^4/well. After adherence, the medium was replaced with DMEM/F12 medium containing 0.2% FBS for 24 culture. […] Dulaglutide (Trade name: Trulicity®)) were diluted with DMEM/F12 medium containing 1% BSA to a series of defined concentration, 27 added into cell culture wells at 100 μl/well, and detected after stimulation for 6 h. The samples were detected according to the specification of Lucifersae reporter kit (Ray Biotech, 29 Cat: 68-LuciR-5200). The assay was repeated 3 times for each sample.

GIPR = biological target: T2, GIPR (Homo sapiens, UniProt P48546); test: GIPR agonist activity assay, luciferase reporter gene in stably transfected CHO-K1 cells; assay type: cell-based; details: summary of Table 3
T2 construct: expressed in transfected cells
T2 sequence (P48546 22-466): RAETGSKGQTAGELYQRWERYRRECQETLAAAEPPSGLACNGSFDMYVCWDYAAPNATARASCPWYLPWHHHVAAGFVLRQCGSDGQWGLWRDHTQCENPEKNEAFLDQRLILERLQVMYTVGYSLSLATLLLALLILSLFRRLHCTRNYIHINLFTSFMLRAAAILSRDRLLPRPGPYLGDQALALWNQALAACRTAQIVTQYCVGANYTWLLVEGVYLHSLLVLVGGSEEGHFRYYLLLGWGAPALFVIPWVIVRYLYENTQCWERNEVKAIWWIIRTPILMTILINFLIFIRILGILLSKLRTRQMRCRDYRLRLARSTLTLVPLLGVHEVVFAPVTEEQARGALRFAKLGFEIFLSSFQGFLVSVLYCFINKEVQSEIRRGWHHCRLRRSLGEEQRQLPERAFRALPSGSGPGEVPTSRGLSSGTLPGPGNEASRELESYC

GCGR = biological target: T3, GCGR (Homo sapiens, UniProt P47871); test: GCGR agonist activity assay, luciferase reporter gene in stably transfected CHO-K1 cells; assay type: cell-based; details: summary of Table 3
T3 construct: expressed in transfected cells

db/db mice = test: Random blood glucose testing after dosing in db/db mice; assay type: in vivo; details: subcutaneous, 3 nmol/kg/d or 6 nmol/kg/d, versus Dulaglutide 10 nmol/kg/4 d (FIG. 6)
DIO mice = test: Weight loss experiments in diet-induced obesity (DIO) mice; assay type: in vivo; details: subcutaneous, 5 and 20 nmol/kg/d

SMILES | cellular agonist activity (in words) (GLP-1R) | GLP-1R agonist activity (in words) (GLP-1R; summary of Table 3) | GIPR agonist activity (in words) (GIPR) | GCGR agonist activity (in words) (GCGR) | random blood glucose level (db/db mice) | body weight change (DIO mice; 30 days, effect better than Liraglutide 40 nmol/kg/d (FIG. 7)) | food intake (DIO mice; effect better than Liraglutide 40 nmol/kg/d (FIG. 8)) | fasting blood glucose (DIO mice; measured Day 29, effect better than Liraglutide 40 nmol/kg/d (FIG. 9))
CC(C)C[C@H](NC(=O)[C@H](CC(C)C)NC(=O)[C@H](Cc1c[nH]c2ccccc12)NC(=O)[C@H](CCC(N)=O)NC(=O)[C@@H](NC(=O)[C@H](Cc1ccccc1)NC(=O)[C@H](CC(=O)O)NC(=O)[C@H](CCC(N)=O)NC(=O)[C@H](C)NC(=O)[C@H](C)NC(=O)[C@H](CCC(N)=O)NC(=O)[C@H](CO)NC(=O)[C@H](CC(=O)O)NC(=O)[C@H](CC(C)C)NC(=O)[C@H](Cc1ccc(O)cc1)NC(=O)[C@H](CCCCN)NC(=O)[C@H](CO)NC(=O)[C@H](CCCCNC(=O)COCCOCCNC(=O)COCCOCCNC(=O)CC[C@H](NC(=O)CCCCCCCCCCCCCCCCCCC(=O)O)C(=O)O)NC(=O)[C@H](CC(=O)O)NC(=O)[C@H](CO)NC(=O)[C@@H](NC(=O)[C@H](Cc1ccccc1)NC(=O)[C@@H](NC(=O)CNC(=O)[C@H](CCC(=O)O)NC(=O)[C@H](CO)NC(=O)[C@@H](N)Cc1ccc(O)cc1)[C@@H](C)O)[C@@H](C)O)C(C)C)C(=O)N[C@@H](C)C(=O)NCC(=O)NCC(=O)N1CCC[C@H]1C(=O)N[C@@H](CO)C(=O)N[C@@H](CO)C(=O)NCC(=O)N[C@@H](C)C(=O)N1CCC[C@H]1C(=O)N1CCC[C@H]1C(=O)N1CCC[C@H]1C(=O)N[C@@H](CO)C(N)=O [P9YELAN] (H-YSEGTFTSDK([AEEA-AEEA-γGlu-C20 diacid])SKYLDSQAAQDFVQWLLAGGPSSGAPPPS-NH2) | significantly decreased |  |  |  |  |  |  | 
CC(C)C[C@H](NC(=O)[C@H](CC(C)C)NC(=O)[C@H](Cc1c[nH]c2ccccc12)NC(=O)[C@H](CCC(N)=O)NC(=O)[C@@H](NC(=O)[C@H](Cc1ccccc1)NC(=O)[C@H](CC(=O)O)NC(=O)[C@H](CCC(N)=O)NC(=O)[C@H](C)NC(=O)[C@H](C)NC(=O)[C@H](CCC(N)=O)NC(=O)[C@H](CO)NC(=O)[C@H](CC(=O)O)NC(=O)[C@H](CC(C)C)NC(=O)[C@H](Cc1ccc(O)cc1)NC(=O)[C@H](CCCCN)NC(=O)[C@H](CO)NC(=O)[C@H](CCCCNC(=O)COCCOCCNC(=O)COCCOCCNC(=O)CC[C@H](NC(=O)CCCCCCCCCCCCCCCCC(=O)O)C(=O)O)NC(=O)[C@H](CC(=O)O)NC(=O)[C@H](CO)NC(=O)[C@@H](NC(=O)[C@H](Cc1ccccc1)NC(=O)[C@@H](NC(=O)CNC(=O)[C@H](CCC(=O)O)NC(=O)[C@H](CO)NC(=O)[C@@H](N)Cc1ccc(O)cc1)[C@@H](C)O)[C@@H](C)O)C(C)C)C(=O)N[C@@H](C)C(=O)NCC(=O)NCC(=O)N1CCC[C@H]1C(=O)N[C@@H](CO)C(=O)N[C@@H](CO)C(=O)NCC(=O)N[C@@H](C)C(=O)N1CCC[C@H]1C(=O)N1CCC[C@H]1C(=O)N1CCC[C@H]1C(=O)N[C@@H](CO)C(N)=O [P5YELAN] (H-YSEGTFTSDK([AEEA-AEEA-γGlu-C18 diacid])SKYLDSQAAQDFVQWLLAGGPSSGAPPPS-NH2) | significantly decreased |  |  |  |  |  |  | 
CCCCCCCCCCCCCCCC(=O)N[C@@H](CCC(=O)NCCCC[C@H](NC(=O)[C@H](CC(=O)O)NC(=O)[C@H](CO)NC(=O)[C@@H](NC(=O)[C@H](Cc1ccccc1)NC(=O)[C@@H](NC(=O)CNC(=O)[C@H](CCC(=O)O)NC(=O)[C@H](CO)NC(=O)[C@@H](N)Cc1ccc(O)cc1)[C@@H](C)O)[C@@H](C)O)C(=O)N[C@@H](CO)C(=O)N[C@@H](CCCCN)C(=O)N[C@@H](Cc1ccc(O)cc1)C(=O)N[C@@H](CC(C)C)C(=O)N[C@@H](CC(=O)O)C(=O)N[C@@H](CO)C(=O)N[C@@H](CCC(N)=O)C(=O)N[C@@H](C)C(=O)N[C@@H](C)C(=O)N[C@@H](CCC(N)=O)C(=O)N[C@@H](CC(=O)O)C(=O)N[C@@H](Cc1ccccc1)C(=O)N[C@H](C(=O)N[C@@H](CCC(N)=O)C(=O)N[C@@H](Cc1c[nH]c2ccccc12)C(=O)N[C@@H](CC(C)C)C(=O)N[C@@H](CC(C)C)C(=O)N[C@@H](C)C(=O)NCC(=O)NCC(=O)N1CCC[C@H]1C(=O)N[C@@H](CO)C(=O)N[C@@H](CO)C(=O)NCC(=O)N[C@@H](C)C(=O)N1CCC[C@H]1C(=O)N1CCC[C@H]1C(=O)N1CCC[C@H]1C(=O)N[C@@H](CO)C(N)=O)C(C)C)C(=O)O [P3YELAN] (H-YSEGTFTSDK([γGlu-Palmitoyl])SKYLDSQAAQDFVQWLLAGGPSSGAPPPS-NH2) |  | very high | very high | significant | much lower than that in those given Dulaglutide | significantly reduce the body weight | significantly reduce the food intake | significantly reduce the fasting blood glucose
